## Screening data, single-dose tests

From ChEMBL document CHEMBL3988442, “University of Dundee, Small-Polar-MMV Screening Library” (2021).

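Assay of Toxoplasma gondii numbers, read through their beta-galactosidase reporter with a colour substrate. Tested at 50 µM. Higher reads as fewer parasites (inferred from which compounds were picked for retests). About 18,000 compounds were tested under these conditions; 0.94% (about 170) showed 50% or more at least once.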

Results are given as percent effect.
The controls that fix the scale are not given in the record; negative values are as filed.
This is an unselected part of the compounds tested.

* Cn1ccnc1C(N)c1cccc(F)c1 (stereo unspecified) | -1.634%
* O=C(c1cn[nH]c1)N1CCC(O)(CN2CCCC2)CC1 | -9.585%
* Cc1ccc2c(c1)C(=O)NCC2 | -9.759%
* CN(C)CCNC(=O)c1cccc(F)c1 | 5.384%
* Cc1occc1-c1nnc(SC(C)C(=O)N(C)C)n1C (stereo unspecified) | -3.505%
* OCCOC1CCCNC1 (stereo unspecified) | -5.589%
* CC(C)(C)C(=O)N1CCC(O)(C(F)(F)F)C1 (stereo unspecified) | -7.992%
* N#Cc1ccc(CCO)cc1 | -40.25%
* Cn1cc([C@@H]2OCCC[C@H]2CN)cn1 | 1.285%
* CC(N)c1ccc(-n2cncn2)cc1 (stereo unspecified) | -0.1125%
* COc1cc(CCCO)cc(OC)c1O | -6.776%
* c1cc2c(cc1CNCC1CCCO1)OCO2 (stereo unspecified) | 14%
* COc1ccc(OC)c(S(=O)(=O)N2CCSCC2)c1 | 14.47%
* CCn1cc(Br)c(C(C)=O)n1 | -0.3112%
* OC1CCCN(Cc2nc3ccccc3o2)C1 (stereo unspecified) | -3.136%
* Cc1cccc(NC(=O)NC2CCN(C)CC2)c1 | -9.939%
* CN1CCC(CCNC(=O)c2cccs2)CC1 | 42.62%
* CC(C)(C)C(=O)N1CCc2cnccc21 | -19.67%
* NC1CCN(CC(F)F)CC1 | 56.61%
* CN1CCC(CNC(=O)Nc2ccccc2F)CC1 | -1.636%
* CCC(=O)N(c1ccc(Cl)cc1)C1C=CS(=O)(=O)C1 (stereo unspecified) | -0.8656%
* c1ccc2c(c1)COC21CCNC1 (stereo unspecified) | 3.228%
* COCc1n[nH]c(N)c1-c1ccc(OC)cc1 | 0.2543%
* Cc1nnc(CN2CCCSCC2)o1 | 6.053%
* Clc1cnccc1CN1CCC2(CC1)OCCO2 | -4.506%
* CCc1nnsc1C(=O)NC(C)CN1CCOCC1 (stereo unspecified) | 0.5061%
* COCCOc1cccc(CNCCNS(C)(=O)=O)c1 | 9.929%
* CN1C(=O)CCC1C(=O)OCCn1cccn1 (stereo unspecified) | -3.979%
* COCC(C)(CCO)NCc1cccc(F)c1 (stereo unspecified) | 2.377%
* CC(=O)Nc1cccn(CC(F)(F)F)c1=O | -1.84%
* NCC(=O)N1CCN(c2ccccc2F)CC1 | 2.582%
* Cc1cc(NC(=O)NCCN2CCC(C)CC2)n(C)n1 | -15.44%
* NC(=O)COCCNC(=O)c1csc(Br)c1 | -8.557%
* CCNC(=O)c1cc2ccc(OC)cc2[nH]1 | -0.6946%
* c1ncc(CN2CCOCC3(CCOCC3)C2)s1 | 4.822%
* Nc1nnc(CCNC(=O)CCc2cccnc2)s1 | -14.58%
* CC(C)(C)OC(=O)N1CCCC1CN (stereo unspecified) | -3.138%
* CCn1nnc(NCc2ccccc2)n1 | -5.415%
* CCC1CN(C)c2ccccc2CN1CCOCCO (stereo unspecified) | -0.6361%
* CN1CCN(Cc2ccc(N(C)C)nc2)CCC1=O | 22.08%
* CC1CN(C)CCN1CC(=O)NCc1ccco1 (stereo unspecified) | 19.89%
* CSc1ccc2c(c1)CCN(C(=O)C1CCNC1)C2 (stereo unspecified) | 4.452%
* CC(O)C1CCN(CC(=O)NC2CCCC2)CC1 (stereo unspecified) | -1.48%
* COC(C)(C)C(=O)CSc1cc(C#N)ccn1 | 9.152%
* COC(=O)c1cc(C)sc1N1C(=O)C=CC1=O | -7.656%
* CNC(=O)C1(c2cccc(Cl)c2)CC1 | 26.75%
* Cc1c[nH]c(C(C)NC(=O)c2ccccc2C#N)n1 (stereo unspecified) | 18.74%
* CC1CN(CCCN)CCCO1 (stereo unspecified) | -32.22%
* CNCc1ccc(C)cn1 | -0.04362%
* O=C(Cn1cccnc1=O)NCCCOC1CCCC1 | 5.732%
* CC1CCN(C(=O)CCN2C[C@H](C3CC3)[C@@H](N)C2)CC1 | 8.292%
* CCOc1cccc(CNc2nc(N(C)C)n[nH]2)c1 | -4.874%
* COCCC1CN(C(=O)c2nc(C)c[nH]2)CCO1 (stereo unspecified) | -7.607%
* Cc1nc[nH]c1CN1CCSCC1 | 2.184%
* O=C(CNCC1CC1)Nc1ccc(F)cc1 | -10.74%
* O=S1(=O)C[C@H]2CNC[C@@H](C1)[C@@H]2O | -8.073%
* CCN(Cc1ccc(Cl)c(Cl)c1)C(=O)CCS(C)(=O)=O | -8.028%
* N#Cc1cc(F)ccc1CN1CC[C@@H](O)C1 | -21.58%
* CCN(CC)CC(=O)N1CCN(C(C)C#N)CC1 (stereo unspecified) | -6.718%
* N[C@@H]1CCN(Cc2cc(F)cc(C(F)(F)F)c2)C[C@H]1O | -3.923%